Data as given in PubChem BioAssay AID504791 (Drosophila RNAi Screening Center, 2011)
The screen tested about 23,000 reagents; shown is a random part of those with a known target gene and a result. Of all reagents, 199 (0.86%) are marked active. 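Plate-scaled ratios behind the calls are not deposited; printed light signals are raw; many rows marked increased or decreased are still called inactive.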 Entries without a mark were called inactive. A plus sign joins genes that one reagent is predicted to hit.

Aim: 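Genes whose knock-down strengthens or weakens small-RNA reporter silencing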 (primary screen)
System: Drosophila S2-derived reporter cells
Reagents: long dsRNA against Drosophila genes, about 150-250 ng dsRNA per well (siRNA assay); about 80-120 ng (miRNA assay)
Duration: about 5 days (siRNA assay); about 4 days (miRNA assay)
Challenge: copper sulfate induction of reporters: 25 µM (siRNA assay); 200 mM stated (miRNA assay), 1-2 days before reading
Detection: 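Per-well ratio of Renilla over firefly light, expressed relative to that plate's average ratio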
Direction: siRNA reporter hit score: higher = 3 marks a strong hit with raised ratio; -3 a strong hit with lowered ratio
Hit rule: 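First-pass picks had plate-scaled ratios over 1.5 for the siRNA assay, over 1.6 for the miRNA assay, or under 0.6; two distinct dsRNAs had to score alike on retest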

no.	gene knocked down	DRSC id	siRNA reporter hit score	stable siRNA reporter change	miRNA reporter change	stable assay Renilla, run 1 (luminescence)	stable assay firefly, run 1 (luminescence)
1	Tengl4 (Testis EndoG-Like 4)	DRSC15620				7082	3.80e5
2	Ogg1 (8-oxoguanine DNA glycosylase)	DRSC17738				7496	4.52e5
3	PPYR1 (Protein phosphatase Y regulator 1)	DRSC19612				6382	5.96e5
4	SC35 (SR family splicing factor SC35)	DRSC02502		reporter ratio raised past the hit cutoff		5967	2.15e5
5	SC35 (SR family splicing factor SC35)	DRSC03425				7306	3.85e5
6	EMC2B + EMC2A	DRSC15241				5859	5.00e5
7	Muc68Ca (Mucin 68Ca)	DRSC10312				4079	3.50e5
8	Muc68Ca (Mucin 68Ca)	DRSC10313				7474	6.15e5
9	Obp28a (Odorant-binding protein 28a)	DRSC03394				8158	5.51e5
10	Asciz (ASCIZ zinc finger protein)	DRSC08421				7118	4.61e5
11	CG12206	DRSC17828				6411	4.12e5
12	lectin-37Db	DRSC03279				7590	4.05e5
13	NT1 (Neurotrophin 1)	DRSC08530				6187	5.36e5
14	NT1 (Neurotrophin 1)	DRSC22895				4140	3.72e5
15	Regnase-1 (Regnase 1)	DRSC14278				8464	2.91e5
16	CG2604	DRSC12313				6982	4.34e5
17	fng (fringe)	DRSC11455				5963	3.93e5
18	fng (fringe)	DRSC11887				8950	3.39e5
19	fng (fringe)	DRSC21935				9318	6.06e5
20	Dll (Distal-less)	DRSC04610				6102	5.46e5
21	CG13912	DRSC08381	3			5722	3.51e5
22	CG17047	DRSC06648				6495	3.55e5
23	CG13775	DRSC02279				10430	7.50e5
24	ec (echinus)	DRSC17285				7975	4.08e5
25	ec (echinus)	DRSC17286				7707	3.97e5
26	ec (echinus)	DRSC18658				6294	3.09e5
27	CG13380 + CG4174	DRSC09988				8435	3.29e5
28	CG13380 + CG4174	DRSC10406				6755	2.87e5
29	HIPP1 (HP1 and insulator partner protein 1)	DRSC11748				11179	3.35e5

The list goes on; the last 3 above are carried over.
no.	gene knocked down	DRSC id	siRNA reporter hit score	stable siRNA reporter change	miRNA reporter change	stable assay Renilla, run 1 (luminescence)	stable assay firefly, run 1 (luminescence)
27	CG13380 + CG4174	DRSC09988				8435	3.29e5
28	CG13380 + CG4174	DRSC10406				6755	2.87e5
29	HIPP1 (HP1 and insulator partner protein 1)	DRSC11748				11179	3.35e5
30	CG11504	DRSC14318				8218	4.68e5
31	ND-ACP	DRSC08724				5772	4.09e5
32	rasp	DRSC08191				6630	3.94e5
33	CAH7 (Carbonic anhydrase 7)	DRSC15524				6046	4.08e5
34	CG3356	DRSC04358				8134	1.47e6
35	CG3517	DRSC15492				7122	2.95e5
36	fkh (fork head)	DRSC16949				5747	3.52e5
37	Claspin	DRSC08308				4140	4.39e5
38	CG2233	DRSC18217		reporter ratio raised past the hit cutoff		38745	5.77e5
39	BCAS2	DRSC15693				10181	3.92e5
40	CG32024	DRSC21883				9049	5.50e5
41	SamDC (S-adenosylmethionine decarboxylase)	DRSC03429				31130	5.79e5
42	Gr22b (Gustatory receptor 22b)	DRSC20911				5203	4.53e5
43	CG32537	DRSC20073				7825	4.71e5
44	mRpL20 (mitochondrial ribosomal protein L20)	DRSC09828				5879	4.72e5
45	CG7519	DRSC11834				7600	4.23e5
46	TFAM (mitochondrial transcription factor A)	DRSC15552				7487	3.67e5
47	CG3520	DRSC04383				5900	3.48e5
48	Sec61alpha (Sec61 alpha subunit)	DRSC03256				9421	8.73e5
49	moody	DRSC18515				5880	3.22e5
50	CG33937 (retired record)	DRSC15148				7571	6.74e5
51	Ykt6 (YKT6 v-SNARE)	DRSC17970				7119	3.18e5
52	CG11382	DRSC18624				6175	3.82e5
53	thr (three rows)	DRSC07706				9929	3.98e5
54	CG11865	DRSC01872				6078	3.71e5
55	CG17239	DRSC00492				7294	3.69e5
56	CG14109	DRSC10112				6755	3.47e5
57	CG7848	DRSC07050				5984	3.26e5
58	cyst (cysts)	DRSC02023				36651	1.13e6
59	Su(var)3-9 (Suppressor of variegation 3-9)	DRSC14484				6163	3.59e5
60	CG1136	DRSC08184				8139	4.95e5
61	CG34305	DRSC11995				7406	4.85e5
62	FucTC (alpha1,3-fucosyltransferase C)	DRSC20966				5751	4.17e5
63	CG2921	DRSC04324			reporter ratio lowered past the hit cutoff	9530	6.44e5
64	peng (penguin)	DRSC20583				5722	4.55e5
65	CG18557	DRSC00524				7767	5.26e5
66	CG4617	DRSC18377				7521	3.92e5
67	CG5968	DRSC02916				8051	5.21e5
68	MED7 (Mediator complex subunit 7)	DRSC16059				4407	2.74e5
69	niki (nimA-like kinase)	DRSC14285				5459	3.78e5
70	CG16790	DRSC15156				6732	4.51e5
71	CG6724	DRSC02983				6567	3.72e5
72	Sc2	DRSC08162				7702	4.63e5
73	CG5026	DRSC10470				8662	4.26e5
74	Mad	DRSC00759				7020	3.90e5
75	Ugt37A3 (UDP-glycosyltransferase family 37 member A3)	DRSC15937				7174	4.46e5
76	CG9962	DRSC00739				7910	3.94e5
77	snoRNA:Me28S-C3420b + RpS11	DRSC07396				5523	3.42e5
78	CG33235	DRSC19641				4559	4.43e5
79	Meics (Meiotic central spindle)	DRSC11413				7107	5.22e5
80	Pnn (Pinin)	DRSC16415				6866	3.45e5
81	CG34039	DRSC09318				4996	3.16e5
82	CG14607	DRSC12551				7171	3.90e5
83	CG43693	DRSC09086				4440	4.11e5
84	CG43693	DRSC10625				7506	5.10e5
